# PubChem BioAssay AID1224828 | NIAID | 2016
# Test: 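Knock-downs that increase or decrease LPS-induced p65 nuclear translocation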 (primary screen)
# Cells: mouse RAW264.7 G9 macrophage reporter cells (GFP-p65, Tnf promoter-mCherry)
# Reagents: siRNA pool against mouse genes, 100 nM
# Timing: 2 days siRNA transfection, then 40 min LPS before fixation
# Treatment: LPS (Salmonella minnesota R595) at 10 ng/ml
# Detection: 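Microscopy ratio of nuclear to perinuclear-ring GFP-p65 signal, scaled to the plate median; gene score is the average of two replicate robust z-scores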
# Reading the numbers: p65 translocation robust z-score: higher = more nuclear NF-kappaB p65 after LPS than the plate median; nuclear/cytoplasmic p65 ratio: higher = more nuclear NF-kappaB p65
# Call rule: 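Active if robust z is above 3.3 (negative regulators) or below -1.56, the Tlr4 control median (positive regulators); activity score 50 or more; control wells not called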
# Calls: active = hit (p65 shift raised or lowered); inactive = no clear change
# The deposit covers about 17,000 reagents; this is an unselected part. In the full data, 762 (4.5%) are marked active. 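Active calls include both raised and lowered p65 entry, mostly lowered; wells with fewer than 50 cells lack a z-score.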 The raw values are shown without normalisation. Reagent sequences are not shown.
The opening 2 entries, ahead of the listing:
target,PubChem SID,p65 translocation robust z-score,"nuclear/cytoplasmic p65 ratio, rep 1","nuclear/cytoplasmic p65 ratio, rep 2",low cell count flag,Call
Alox12b (GeneID 11686),SID315465393,0.96,1.74,1.79,enough cells to score,inactive
Mfap2 (GeneID 17150),SID315467819,0.78,1.74,1.74,enough cells to score,inactive

Results, from the start:
target,PubChem SID,p65 translocation robust z-score,"nuclear/cytoplasmic p65 ratio, rep 1","nuclear/cytoplasmic p65 ratio, rep 2",low cell count flag,Call
Alox12b (GeneID 11686),SID315465393,0.96,1.74,1.79,enough cells to score,inactive
Mfap2 (GeneID 17150),SID315467819,0.78,1.74,1.74,enough cells to score,inactive
Or4d2 (GeneID 258408),SID315480092,,1.02,1.02,fewer than 50 cells per well; well left out of scoring,inactive
Atp6v0a2 (GeneID 21871),SID315469730,-1.54,1.32,1.35,enough cells to score,inactive
Gk (GeneID 14933),SID315467085,1.66,1.95,1.6,enough cells to score,inactive
Uqcc1 (GeneID 56046),SID315471354,-0.46,1.53,1.56,enough cells to score,inactive
Adam17 (GeneID 11491),SID315465288,0.22,1.65,1.65,enough cells to score,inactive
Kmt5c (GeneID 232811),SID315479009,1.43,1.81,2.06,enough cells to score,inactive
Vav2 (GeneID 22325),SID315469984,0.09,1.55,1.64,enough cells to score,inactive
Smgc (GeneID 223809),SID315478296,,1.33,1.03,fewer than 50 cells per well; well left out of scoring,inactive
Synpo2 (GeneID 118449),SID315477102,-0.25,1.34,1.16,enough cells to score,inactive
Adam2 (GeneID 11495),SID315465290,0.43,1.71,1.66,enough cells to score,inactive
Svs4 (GeneID 20941),SID315469540,-0.35,1.38,1.19,enough cells to score,inactive
Aurkaip1 (GeneID 66077),SID315472199,0.67,1.6,1.82,enough cells to score,inactive
Parp8 (GeneID 52552),SID315470978,1.37,1.75,2.04,enough cells to score,inactive
Txndc12 (GeneID 66073),SID315472196,,1.52,1.3,fewer than 50 cells per well; well left out of scoring,inactive
Ndufa10 (GeneID 67273),SID315472939,-0.61,1.67,1.52,enough cells to score,inactive
Zbtb22 (GeneID 81630),SID315475789,0.53,1.29,1.31,enough cells to score,inactive
Rpgrip1l (GeneID 244585),SID315479769,-0.66,1.21,1.43,enough cells to score,inactive
Thop1 (GeneID 50492),SID315470796,-0.85,1.26,0.996,enough cells to score,inactive
Or2h2c (GeneID 258448),SID315480130,2.02,1.81,1.39,enough cells to score,inactive
Degs2 (GeneID 70059),SID315473966,,1.65,1.75,fewer than 50 cells per well; well left out of scoring,inactive
Cma1 (GeneID 17228),SID315467871,,1.51,1.26,fewer than 50 cells per well; well left out of scoring,inactive
Proser3 (GeneID 333193),SID315481655,0.47,1.78,1.63,enough cells to score,inactive
Prl5a1 (GeneID 28078),SID315470672,-1.09,1.49,1.52,enough cells to score,inactive
4930412C18Rik (GeneID 320152),SID315481241,0.65,1.42,1.57,enough cells to score,inactive
Prmt3 (GeneID 71974),SID315474402,1.86,1.99,1.75,enough cells to score,inactive
Or7g16 (GeneID 258598),SID315480260,1.57,1.66,1.17,enough cells to score,inactive
Fahd2a (GeneID 68126),SID315473421,0.19,1.64,1.64,enough cells to score,inactive
Bub1b (GeneID 12236),SID315465686,-1.5,1.41,1.23,enough cells to score,inactive
Matn1 (GeneID 17180),SID315467838,0.01,1.53,1.27,enough cells to score,inactive
Igdcc4 (GeneID 56741),SID315471664,-0.38,1.66,1.47,enough cells to score,inactive
Rex2 (GeneID 100043034),SID315468954,0.5,1.45,1.3,enough cells to score,inactive
Secisbp2l (GeneID 70354),SID315474020,,1.36,1.32,fewer than 50 cells per well; well left out of scoring,inactive
Slc26a1 (GeneID 231583),SID315478904,-0.4,1.27,1.21,enough cells to score,inactive
1700084J12Rik (GeneID 73486),SID315474740,-1.15,1.16,1.36,enough cells to score,inactive
1810018F18Rik (GeneID 69166),SID315473741,-0.71,1.3,1.59,enough cells to score,inactive
Prp2 (GeneID 83380),SID315475807,,1.17,1.12,fewer than 50 cells per well; well left out of scoring,inactive
Cdipt (GeneID 52858),SID315471025,-0.89,1.4,1.71,enough cells to score,inactive
Mtss1 (GeneID 211401),SID315477680,0.11,1.74,1.66,enough cells to score,inactive
Nlrp4f (GeneID 97895),SID315476112,0.54,1.51,1.59,enough cells to score,inactive
Eif2b5 (GeneID 224045),SID315478316,0.28,1.53,1.38,enough cells to score,inactive
Paqr4 (GeneID 76498),SID315475328,,1.25,1.35,fewer than 50 cells per well; well left out of scoring,inactive
Adck2 (GeneID 57869),SID315471836,-0.03,1.69,1.38,enough cells to score,inactive
Fbxl7 (GeneID 448987),SID315481129,-0.23,1.55,1.5,enough cells to score,inactive
Usp8 (GeneID 84092),SID315475891,-0.4,1.44,1.46,enough cells to score,inactive
H2-K1 (GeneID 14972),SID315467108,0.48,1.38,1.55,enough cells to score,inactive
H2-K1 (GeneID 14972),SID315471620,-2.26,1.4,1.19,enough cells to score,active
Scn9a (GeneID 20274),SID315469121,,1.79,1.48,fewer than 50 cells per well; well left out of scoring,inactive
Pskh1 (GeneID 244631),SID315479771,,1.83,1.57,fewer than 50 cells per well; well left out of scoring,inactive
Atg13 (GeneID 51897),SID315470920,-0.16,1.52,1.88,enough cells to score,inactive
Cxcl17 (GeneID 232983),SID315479033,-0.22,1.58,1.77,enough cells to score,inactive
Ap4m1 (GeneID 11781),SID315465445,3.25,1.97,2.08,enough cells to score,inactive
Ly6g6g (GeneID 78725),SID315475604,0.12,1.4,1.75,enough cells to score,inactive
Zfp14 (GeneID 243906),SID315479718,,1.04,1.03,fewer than 50 cells per well; well left out of scoring,inactive
Tasor2 (GeneID 105203),SID315476476,1.87,1.78,2.16,enough cells to score,inactive
Bag2 (GeneID 213539),SID315477814,1.38,1.85,1.79,enough cells to score,inactive
Abhd4 (GeneID 105501),SID315476493,-0.26,1.53,1.62,enough cells to score,inactive
Cant1 (GeneID 76025),SID315475230,-0.23,1.44,1.33,enough cells to score,inactive
